From PMC3499365
No constants are given. Whether binding was seen depends on the method and setting. Binding seen in cells or lysates may run through a third protein. Some entries that bind do so weakly or less than the wild type. Sequences can lack the tags named with a protein.

Protein sequences, listed by entry. Tags and fused reporters are not part of them.
UniProt Q9NQT5: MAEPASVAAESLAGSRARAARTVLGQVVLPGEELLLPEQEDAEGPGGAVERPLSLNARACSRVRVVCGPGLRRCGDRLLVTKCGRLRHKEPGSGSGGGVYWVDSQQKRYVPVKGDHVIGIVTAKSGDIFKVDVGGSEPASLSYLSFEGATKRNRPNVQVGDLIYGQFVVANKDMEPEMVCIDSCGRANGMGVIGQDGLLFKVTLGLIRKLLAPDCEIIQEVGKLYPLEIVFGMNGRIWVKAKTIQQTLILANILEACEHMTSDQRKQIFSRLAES

T1: GFP-PABPN1 (poly(A)-binding protein nuclear 1) (human) (UniProt Q86U42)
T1 sequence: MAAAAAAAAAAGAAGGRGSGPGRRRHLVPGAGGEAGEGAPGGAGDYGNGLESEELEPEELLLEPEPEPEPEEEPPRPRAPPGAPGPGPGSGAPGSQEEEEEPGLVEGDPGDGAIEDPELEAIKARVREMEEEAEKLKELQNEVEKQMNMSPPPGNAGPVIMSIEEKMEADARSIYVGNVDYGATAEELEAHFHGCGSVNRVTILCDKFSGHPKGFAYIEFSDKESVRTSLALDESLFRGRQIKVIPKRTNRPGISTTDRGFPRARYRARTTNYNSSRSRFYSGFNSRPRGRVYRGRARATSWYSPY

T2: endogenous hRRP6 (human (endogenous in HEK293T)) (UniProt Q01780)
T2 sequence: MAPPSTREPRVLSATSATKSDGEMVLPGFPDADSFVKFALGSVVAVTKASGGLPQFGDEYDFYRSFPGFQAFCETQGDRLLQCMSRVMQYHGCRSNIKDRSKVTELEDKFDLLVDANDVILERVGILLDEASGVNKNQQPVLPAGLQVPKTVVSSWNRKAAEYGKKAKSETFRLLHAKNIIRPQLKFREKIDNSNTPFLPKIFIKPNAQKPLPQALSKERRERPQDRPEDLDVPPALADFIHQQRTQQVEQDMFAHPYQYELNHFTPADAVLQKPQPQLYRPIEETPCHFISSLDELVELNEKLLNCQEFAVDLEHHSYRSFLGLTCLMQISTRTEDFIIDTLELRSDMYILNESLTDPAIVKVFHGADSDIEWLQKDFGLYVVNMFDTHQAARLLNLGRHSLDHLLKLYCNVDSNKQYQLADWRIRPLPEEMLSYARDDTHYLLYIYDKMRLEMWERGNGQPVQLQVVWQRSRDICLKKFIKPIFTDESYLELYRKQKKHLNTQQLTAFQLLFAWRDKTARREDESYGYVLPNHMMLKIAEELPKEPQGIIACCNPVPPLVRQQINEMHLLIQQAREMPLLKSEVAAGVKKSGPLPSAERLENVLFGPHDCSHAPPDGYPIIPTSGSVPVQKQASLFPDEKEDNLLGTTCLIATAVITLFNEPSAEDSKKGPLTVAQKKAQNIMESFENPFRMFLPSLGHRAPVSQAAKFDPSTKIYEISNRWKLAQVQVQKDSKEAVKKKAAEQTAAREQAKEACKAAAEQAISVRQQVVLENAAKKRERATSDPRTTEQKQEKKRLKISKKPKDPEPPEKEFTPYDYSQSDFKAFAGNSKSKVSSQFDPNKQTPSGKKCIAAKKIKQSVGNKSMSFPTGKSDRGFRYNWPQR


Key:
[1] = target: T1, GFP-PABPN1 (poly(A)-binding protein nuclear 1) (human); experiment: co-IP; GFP immunoprecipitates from extracts of HEK293T cells that stably express GFP or GFP-PABPN1 and were transfected with Flag-hRRP40; lysis in buffer B (50 mM Tris-HCl pH 7.5, 150 mM NaCl, 1% Triton-X-100, 10% glycerol, 2 mM MgCl2, 1 mM DTT), beads washed four times in lysis buffer; Western blot with anti-Flag and anti-GFP
[2] = target: T2, endogenous hRRP6 (human (endogenous in HEK293T)); experiment: co-IP; hRRP6 immunoprecipitates (affinity-purified antibody to endogenous hRRP6) from extracts of HEK293T cells that stably express GFP or GFP-PABPN1; lysis in buffer B (50 mM Tris-HCl pH 7.5, 150 mM NaCl, 1% Triton-X-100, 10% glycerol, 2 mM MgCl2, 1 mM DTT), beads washed four times in lysis buffer; Western blot with anti-hRRP6 and anti-GFP

binding [1] | binding [2] | Molecule
binds | – | Flag-tagged hRRP40 (from UniProt Q9NQT5 1-275)
– | binds | GFP-PABPN1 (poly(A)-binding protein nuclear 1) (protein, UniProt Q86U42 1-306) MAAAAAAAAAAGAAGGRGSGPGRRRHLVPGAGGEAGEGAPGGAGDYGNGLESEELEPEELLLEPEPEPEPEEEPPRPRAPPGAPGPGPGSGAPGSQEEEEEPGLVEGDPGDGAIEDPELEAIKARVREMEEEAEKLKELQNEVEKQMNMSPPPGNAGPVIMSIEEKMEADARSIYVGNVDYGATAEELEAHFHGCGSVNRVTILCDKFSGHPKGFAYIEFSDKESVRTSLALDESLFRGRQIKVIPKRTNRPGISTTDRGFPRARYRARTTNYNSSRSRFYSGFNSRPRGRVYRGRARATSWYSPY
